Test results published in PubChem BioAssay AID504834 (National Center for Advancing Translational Sciences (NCATS), 2011).
About 22,000 (6.9%) of roughly 320,000 compounds were called active. This list was built around the results that the source calls inconclusive (neither active nor inactive); the mix of calls is not that of the screen. Calls follow the shape of the dose curve; as a rule, active = well fitted inhibition curve with a large enough effect; inconclusive = small, poorly fitted or top-dose-only effect, or another doubt; inactive = no such curve, though single readings can be large or run the other way. A potency beside an inconclusive call is a rough fit, not a confirmed value.

Experiment: Primary qHTS for delayed death inhibitors of the malarial parasite plastid, 96 hour incubation
Settings: P. falciparum luciferase reporter growth; series mostly up to 28.7 µM; activity change, negative = inhibition: at the top concentration
How it was run: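 Luminescence readout: decreased luciferase signal marks inhibited growth of reporter-expressing P. falciparum in infected red cells (2% hematocrit, 0.05% parasitemia final), exposed to compound two generations (96 h, 37 C, 5% CO2).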
% is scaled to controls: 0 for no effect and ±100 for the full control effect; potency is read from the fitted curve at half-maximal effect.

SMILES	activity change, negative = inhibition	Potency
COCCCn1c(C)nnc1SCC(=O)Nc1cccc(C)c1	inactive: 1.8%	–
CCOC(=O)c1ccc(NC(=O)CSc2nnc(CCc3ccc(C)o3)n2-c2ccccc2)cc1	–	inconclusive: 0.738 µM [inhibitor, full curve, poor fit]
CCOc1ccc(C(=O)COC(C)=O)cc1	inactive: 17.9%	–
CCS(=O)(=O)N1CCC(NC(=O)C(Cc2cccc(OC)c2OC)NC(C)=O)CC1 (stereo not given)	–	inconclusive: 6.57 µM [inhibitor, partial curve, poor fit]
COc1ccc(CSc2cccc3cccnc23)cc1[N+](=O)[O-]	–	active: 6.57 µM
Cn1cc(S(=O)(=O)N2CCOCC2)cc1C(=O)Nc1cccc(Cl)c1	–	inconclusive: 4.15 µM [inhibitor, partial curve, poor fit]
O=C(NCC1CCCCC1)c1cc(S(=O)(=O)N2CCCCC2)ccc1Cl	–	inconclusive: 18.5 µM [inhibitor, single point]
COc1ccc(C2CC(c3ccc(F)cc3)=NN2c2ccccc2)cc1OC (stereo not given)	–	inconclusive: 4.15 µM [inhibitor, single point]
CCOc1cc(/C=N/NC(=O)c2cccc([N+](=O)[O-])c2)ccc1OS(=O)(=O)c1ccccc1	–	inconclusive: 18.5 µM [inhibitor, single point]
CC(C)c1nc(=S)c2ccccc2[nH]1	–	inconclusive: 13.1 µM [inhibitor, partial curve]
CCN1CCN(C(=O)/C=C\C(=O)O)CC1	–	inconclusive: 0.586 µM [inhibitor, full curve, poor fit]
CCc1ccc(Nc2c([N+](=O)[O-])c(=O)oc3ccccc23)cc1	–	inconclusive: 13.1 µM [inhibitor, partial curve, poor fit]
COc1ccc(C(=O)COc2ccc3ccc(=O)oc3c2)c(OC)c1	–	inconclusive: 4.15 µM [inhibitor, full curve, poor fit]
O=C1NC(=O)/C(=C/c2ccccc2Cl)N1	–	inconclusive: 1.85 µM [inhibitor, full curve, poor fit]
COC(=O)C1=C(C)N(CCc2ccc(OC)c(OC)c2)C(=O)/C1=C\c1ccc(O)cc1	inactive: -2.54%	–
CC(NC(=O)c1cc(S(=O)(=O)N2CCOCC2)ccc1F)c1ccc(-n2ccnc2)cc1 (stereo not given)	–	active: 9.28 µM
Nn1c(SCC(=O)Nc2ccc(F)c(F)c2)nnc1C1CCCCC1	–	active: 11.7 µM
Cc1ccccc1Cn1c(CN2CCc3ccccc3C2)nc2c1c(=O)n(C)c(=O)n2C	–	inconclusive: 11.7 µM [inhibitor, single point]
COc1ccc(CN=C(N)N=C(N)N)cc1Cl	inactive: 23.6%	–
Cc1ccc(C2CN(CCC(N)=O)C(=O)CO2)cc1 (stereo not given)	inactive: 79%	–
O=C(Nc1ccc(F)cc1F)c1ccc(-n2cccn2)nc1	inactive: 20.3%	–
C=CCN(c1ccccc1)S(=O)(=O)c1cccc(C(=O)Nc2ccc(N3CCOCC3)cc2)c1	–	inconclusive: 13.1 µM [inhibitor, single point]

SMILES	activity change, negative = inhibition	Potency
Cc1cc(C)c2c(c1)NC(c1cc3c(cc1Br)OCO3)C1CC=CC21 (stereo not given)	inactive: -18.9%	–
O=C(c1ccc(S(=O)(=O)Cc2ccccc2F)c([N+](=O)[O-])c1)N1CCCCCC1	–	inconclusive: 3.29 µM [inhibitor, full curve, poor fit]
Cc1cccc(OCC(=O)NCC(=O)N/N=C/c2ccc([N+](=O)[O-])cc2)c1	–	inconclusive: 13.1 µM [inhibitor, single point]
COc1ccc(OC)c(Nc2c3ccccc3nc3ccccc23)c1	–	inconclusive: 16.5 µM [inhibitor, single point]
COc1cc(/C=N/N=C(N)N)ccc1OCc1ccc(Cl)cc1	inactive: -2.85%	–
C=CCn1c(SCc2cc(=O)n3ccsc3n2)nnc1C1CCCCC1	–	inconclusive: 1.31 µM [inhibitor, full curve]
CC(CC(=O)NCc1cccnc1)c1ccccc1 (stereo not given)	–	inconclusive: 0.208 µM [inhibitor, partial curve, poor fit]
O=S1(=O)CCOCCCN1Cc1ccc(Cl)cc1	inactive: -1.73%	–
Cc1cc(C(F)F)n2ncc(C(=O)NCCc3ccccc3Cl)c2n1	–	inconclusive: 11.7 µM [inhibitor, single point]
CCOc1cccc2c1OC1(CCCCC1)N1N=C(c3cccnc3)CC21 (stereo not given)	–	inconclusive: 2.62 µM [inhibitor, partial curve, poor fit]
O=c1c2c3c(sc2nc2n1CCCCC2)CCCCC3	inactive: -23%	–
O=C(Nc1cccc([N+](=O)[O-])c1)Nc1cccc([N+](=O)[O-])c1	–	inconclusive: 2.33 µM [inhibitor, partial curve, poor fit]
COc1ccc(C2CC(c3cccs3)=NN2C(=O)COC(=O)c2cncc(Br)c2)cc1OC (stereo not given)	–	inconclusive: 11.7 µM [inhibitor, single point]
O=C(COc1ccccc1)NCC(c1ccco1)N1CCN(c2ccccc2F)CC1 (stereo not given)	–	inconclusive: 11.7 µM [inhibitor, single point]
O=C(Nc1ccc(NC(=O)C2CC2)nc1)c1cccs1	inactive: -12.8%	–
CCN(CC)S(=O)(=O)c1ccc2oc(C(=O)O)c(C)c2c1	–	inconclusive: 11.7 µM [inhibitor, single point]
N#CCC(=O)Nc1ccc(C(=O)N2CCN(S(=O)(=O)c3ccc4ccccc4c3)CC2)cc1	–	inconclusive: 5.22 µM [inhibitor, partial curve, poor fit]
CCC(C)c1ccc(OCC(=O)Nc2ccc3c(c2)C(=O)NC3=O)cc1 (stereo not given)	–	inconclusive: 3.7 µM [inhibitor, partial curve, poor fit]
CCOC(=O)C1=C(C)N=C2SC(C(=O)OC)=CC(=O)N2C1c1ccc(F)cc1 (stereo not given)	–	inconclusive: 18.5 µM [inhibitor, single point]
O=C(NCCC(=O)N(Cc1ccco1)Cc1cccs1)c1ccc(Br)cc1	–	inconclusive: 18.5 µM [inhibitor, single point]
COc1ccccc1CNC(=O)COC(=O)c1cc([N+](=O)[O-])ccc1N1CCOCC1	–	inconclusive: 3.7 µM [inhibitor, single point]
Cn1c(=O)oc2cc(S(=O)(=O)N3CCC4(CC3)OCCO4)ccc21	–	inconclusive: 0.0023 µM [inhibitor, full curve, poor fit]

Shown bar-delimited: entries from further up.
SMILES | activity change, negative = inhibition | Potency
Cc1cccc(OCC(=O)NCC(=O)N/N=C/c2ccc([N+](=O)[O-])cc2)c1 | – | inconclusive: 13.1 µM [inhibitor, single point]
COc1ccc(OC)c(Nc2c3ccccc3nc3ccccc23)c1 | – | inconclusive: 16.5 µM [inhibitor, single point]
COc1cc(/C=N/N=C(N)N)ccc1OCc1ccc(Cl)cc1 | inactive: -2.85% | –
C=CCn1c(SCc2cc(=O)n3ccsc3n2)nnc1C1CCCCC1 | – | inconclusive: 1.31 µM [inhibitor, full curve]
CC(CC(=O)NCc1cccnc1)c1ccccc1 (stereo not given) | – | inconclusive: 0.208 µM [inhibitor, partial curve, poor fit]
O=S1(=O)CCOCCCN1Cc1ccc(Cl)cc1 | inactive: -1.73% | –
Cc1cc(C(F)F)n2ncc(C(=O)NCCc3ccccc3Cl)c2n1 | – | inconclusive: 11.7 µM [inhibitor, single point]
CCOc1cccc2c1OC1(CCCCC1)N1N=C(c3cccnc3)CC21 (stereo not given) | – | inconclusive: 2.62 µM [inhibitor, partial curve, poor fit]
O=c1c2c3c(sc2nc2n1CCCCC2)CCCCC3 | inactive: -23% | –
O=C(Nc1cccc([N+](=O)[O-])c1)Nc1cccc([N+](=O)[O-])c1 | – | inconclusive: 2.33 µM [inhibitor, partial curve, poor fit]
COc1ccc(C2CC(c3cccs3)=NN2C(=O)COC(=O)c2cncc(Br)c2)cc1OC (stereo not given) | – | inconclusive: 11.7 µM [inhibitor, single point]
O=C(COc1ccccc1)NCC(c1ccco1)N1CCN(c2ccccc2F)CC1 (stereo not given) | – | inconclusive: 11.7 µM [inhibitor, single point]
O=C(Nc1ccc(NC(=O)C2CC2)nc1)c1cccs1 | inactive: -12.8% | –
CCN(CC)S(=O)(=O)c1ccc2oc(C(=O)O)c(C)c2c1 | – | inconclusive: 11.7 µM [inhibitor, single point]
N#CCC(=O)Nc1ccc(C(=O)N2CCN(S(=O)(=O)c3ccc4ccccc4c3)CC2)cc1 | – | inconclusive: 5.22 µM [inhibitor, partial curve, poor fit]
CCC(C)c1ccc(OCC(=O)Nc2ccc3c(c2)C(=O)NC3=O)cc1 (stereo not given) | – | inconclusive: 3.7 µM [inhibitor, partial curve, poor fit]
CCOC(=O)C1=C(C)N=C2SC(C(=O)OC)=CC(=O)N2C1c1ccc(F)cc1 (stereo not given) | – | inconclusive: 18.5 µM [inhibitor, single point]
O=C(NCCC(=O)N(Cc1ccco1)Cc1cccs1)c1ccc(Br)cc1 | – | inconclusive: 18.5 µM [inhibitor, single point]
COc1ccccc1CNC(=O)COC(=O)c1cc([N+](=O)[O-])ccc1N1CCOCC1 | – | inconclusive: 3.7 µM [inhibitor, single point]

(next part)

SMILES	activity change, negative = inhibition	Potency
CC(=O)N1c2ccc(S(=O)(=O)NCC3CCC(C(=O)Nc4cccc(C)n4)CC3)cc2CC1C (stereo not given)	–	inconclusive: 18.5 µM [inhibitor, single point]
COc1ccc2c(C=O)cn(C)c2c1	–	inconclusive: 14.7 µM [inhibitor, single point]
CCOC(=O)N1CCN(C(=O)c2ccc(Cl)c(S(=O)(=O)N3CCCC3)c2)CC1	–	inconclusive: 13.1 µM [inhibitor, single point]
CC1CCC(C(C)C)C(OC(=O)COC(=O)c2ccc(N)cc2)C1 (stereo not given)	–	inconclusive: 18.5 µM [inhibitor, single point]
c1ccc(Oc2nc(-c3cccnc3)nc3ccccc23)cc1	–	inconclusive: 18.5 µM [inhibitor, partial curve, poor fit]
Cc1ccc2c(c1)-c1c(ssc1=S)C(C)(C)N2C(=O)CSC1=NCCS1	–	inconclusive: 18.5 µM [inhibitor, single point]
Nc1ncnc(N2CCOCC2)c1N	inactive: 2.86%	–
CC(CC(=O)Nc1cccc(S(=O)(=O)N2CCCCC2)c1)c1ccccc1 (stereo not given)	–	inconclusive: 5.22 µM [inhibitor, partial curve, poor fit]
O=C(C(Sc1ccccc1)c1ccccc1)N1CCOCC1 (stereo not given)	–	inconclusive: 18.5 µM [inhibitor, single point]
NS(=O)(=O)c1ccc(N=Cc2c(O)n(-c3nccs3)c(=O)c3ccccc23)cc1	–	inconclusive: 16.5 µM [inhibitor, single point]
COc1ccc2c(c1)[C@@H]1[C@H](CO2)[C@H](c2ccccc2)[C@]2(C)C(=O)NCC(=O)N12	–	inconclusive: 5.22 µM [inhibitor, single point]
CCN1/C(=C\c2ccc3ccccc3[n+]2CC)Sc2cc(C)ccc21	–	inconclusive: 0.117 µM [inhibitor, full curve, poor fit]
COc1ccc(C(=O)N/N=C\c2ccc(OC)c(COc3ccccc3Br)c2)c(OC)c1	inactive: -19.9%	–
O=C(CNc1ccccc1)N/N=C/c1c[nH]c2ccccc12	–	inconclusive: 16.5 µM [inhibitor, single point]
C#CCOCCOCCOCCNc1nc(N2CCN(C(=O)CCCCCCCCCCNC(=O)[C@@H](CCC(=O)O)n3cc(CCCCCN)nn3)CC2)nc(N2CCN(C(=O)CCCCCCCCCCNC(=O)[C@@H](CCC(=O)O)n3cc(CCCCCN)nn3)CC2)n1	–	inconclusive: 6.57 µM [inhibitor, partial curve, poor fit]
CN1CCN(Cc2nc3c(c(=O)[nH]c(=O)n3C)n2Cc2c(F)cccc2Cl)CC1	–	inconclusive: 13.1 µM [inhibitor, single point]
Cc1ccccc1-n1c(=O)c2ccccc2n2nnnc12	–	inconclusive: 4.65 µM [inhibitor, partial curve, poor fit]
Cc1nc(N2CCN(C(=O)c3ccco3)CC2)c(C#N)c2c1CCCC2	–	inconclusive: 2.08 µM [inhibitor, full curve]
N#Cc1ccccc1S(=O)(=O)c1ccccc1C(=O)Nc1ccccc1	inactive: 12%	–
O=C(NCCCN1CCC(Cc2ccccc2)CC1)c1ccc2nc(N3CCOCC3)sc2c1	–	inconclusive: 3.29 µM [inhibitor, single point]
CC1CC(C)CN(c2ccc([N+](=O)[O-])cc2-c2nn[nH]n2)C1 (stereo not given)	–	inconclusive: 0.0928 µM [inhibitor, full curve, poor fit]
